Values quoted from earlier work, collected in paper PMC4788153, “Impact of Cytochrome P450 2D6 Function on the Chiral Blood Plasma Pharmacokinetics of 3,4-Methylenedioxymethamphetamine (MDMA) and Its Phase I and II Metabolites in Humans” (PLoS ONE, 2016).

Conditions: cited from earlier work

CNC(C)Cc1ccc2c(c1)OCO2 (stereo not drawn) [MDMA, 3,4-methylenedioxymethamphetamine]
duration of acute effects (ref [3]): 4 h
mean duration of subjective and cardiovascular effects (ref [76, 77, 84, 91, 101]): 3.5 h
time within which subjective and cardiovascular effects completely subside (ref [76, 77, 84, 91, 101]): 5 to 6 h
